Measurements: the supplement of paper PMC6411743
± gives the standard deviation of the averaged measurements. The list shows a part of the results.

Sequences of proteins named here, by UniProt entry; tags and fusion partners are left off. A change or cut given only in a name is not applied to a line headed by its entry.
UniProt O00291: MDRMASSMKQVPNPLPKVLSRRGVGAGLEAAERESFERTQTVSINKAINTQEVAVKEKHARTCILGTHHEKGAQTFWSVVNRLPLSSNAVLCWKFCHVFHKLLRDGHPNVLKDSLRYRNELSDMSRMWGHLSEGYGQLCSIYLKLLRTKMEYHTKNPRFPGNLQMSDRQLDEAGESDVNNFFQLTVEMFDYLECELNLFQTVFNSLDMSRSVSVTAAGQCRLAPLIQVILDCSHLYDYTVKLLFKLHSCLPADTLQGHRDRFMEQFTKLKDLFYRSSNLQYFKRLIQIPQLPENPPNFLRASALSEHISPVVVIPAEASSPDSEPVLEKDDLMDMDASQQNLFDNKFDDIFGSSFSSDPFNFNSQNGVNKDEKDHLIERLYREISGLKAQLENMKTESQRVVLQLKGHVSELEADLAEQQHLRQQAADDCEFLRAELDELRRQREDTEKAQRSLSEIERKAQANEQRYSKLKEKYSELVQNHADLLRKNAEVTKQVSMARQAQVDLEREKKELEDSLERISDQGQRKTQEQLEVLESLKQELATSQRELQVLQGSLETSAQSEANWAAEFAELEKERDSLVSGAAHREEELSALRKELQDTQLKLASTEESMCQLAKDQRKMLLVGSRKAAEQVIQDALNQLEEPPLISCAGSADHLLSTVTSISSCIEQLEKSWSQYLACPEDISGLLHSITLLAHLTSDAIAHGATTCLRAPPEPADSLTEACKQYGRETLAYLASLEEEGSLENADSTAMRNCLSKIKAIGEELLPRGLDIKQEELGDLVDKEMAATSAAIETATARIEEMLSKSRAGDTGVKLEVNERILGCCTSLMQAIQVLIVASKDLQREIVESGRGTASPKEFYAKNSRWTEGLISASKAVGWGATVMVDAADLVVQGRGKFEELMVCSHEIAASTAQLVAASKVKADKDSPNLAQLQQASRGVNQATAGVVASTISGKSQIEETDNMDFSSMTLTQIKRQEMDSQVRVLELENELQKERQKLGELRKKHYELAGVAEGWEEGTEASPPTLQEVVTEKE
UniProt O15234, whole entry: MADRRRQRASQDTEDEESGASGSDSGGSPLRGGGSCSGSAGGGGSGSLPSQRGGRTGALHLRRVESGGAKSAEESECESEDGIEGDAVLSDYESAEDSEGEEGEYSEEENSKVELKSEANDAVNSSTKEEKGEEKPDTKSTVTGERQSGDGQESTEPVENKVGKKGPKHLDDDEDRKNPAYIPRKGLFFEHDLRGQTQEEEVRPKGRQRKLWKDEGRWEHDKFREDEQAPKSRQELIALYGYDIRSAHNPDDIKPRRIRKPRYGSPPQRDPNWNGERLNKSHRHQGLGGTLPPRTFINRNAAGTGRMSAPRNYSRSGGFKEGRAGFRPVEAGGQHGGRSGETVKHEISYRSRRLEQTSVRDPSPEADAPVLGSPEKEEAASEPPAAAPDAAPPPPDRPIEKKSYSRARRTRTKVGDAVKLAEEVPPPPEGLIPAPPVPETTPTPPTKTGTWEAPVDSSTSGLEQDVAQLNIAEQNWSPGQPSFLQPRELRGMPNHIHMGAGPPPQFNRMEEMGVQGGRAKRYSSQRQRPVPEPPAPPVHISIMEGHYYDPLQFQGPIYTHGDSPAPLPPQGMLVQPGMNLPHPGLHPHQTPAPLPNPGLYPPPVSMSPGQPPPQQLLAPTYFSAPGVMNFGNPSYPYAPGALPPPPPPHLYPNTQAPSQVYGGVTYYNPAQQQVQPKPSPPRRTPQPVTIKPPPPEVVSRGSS
UniProt O43823: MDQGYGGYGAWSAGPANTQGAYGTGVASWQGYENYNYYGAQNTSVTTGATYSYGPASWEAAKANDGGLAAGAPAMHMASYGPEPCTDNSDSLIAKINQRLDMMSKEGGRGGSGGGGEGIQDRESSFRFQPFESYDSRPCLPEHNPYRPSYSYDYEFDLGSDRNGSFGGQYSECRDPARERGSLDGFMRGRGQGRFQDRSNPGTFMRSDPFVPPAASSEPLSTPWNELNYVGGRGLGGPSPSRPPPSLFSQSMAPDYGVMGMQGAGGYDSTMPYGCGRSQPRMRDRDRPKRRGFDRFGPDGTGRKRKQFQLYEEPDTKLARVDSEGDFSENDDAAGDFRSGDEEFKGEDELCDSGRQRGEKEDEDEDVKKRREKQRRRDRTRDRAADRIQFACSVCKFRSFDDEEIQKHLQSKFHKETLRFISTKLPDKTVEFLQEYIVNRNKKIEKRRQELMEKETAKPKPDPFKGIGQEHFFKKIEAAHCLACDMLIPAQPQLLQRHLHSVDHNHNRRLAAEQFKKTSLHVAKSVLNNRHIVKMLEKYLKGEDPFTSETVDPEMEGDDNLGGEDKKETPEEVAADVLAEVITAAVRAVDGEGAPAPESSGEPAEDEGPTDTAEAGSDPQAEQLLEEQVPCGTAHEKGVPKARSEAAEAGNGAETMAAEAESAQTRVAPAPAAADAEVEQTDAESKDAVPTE
UniProt O60784, whole entry: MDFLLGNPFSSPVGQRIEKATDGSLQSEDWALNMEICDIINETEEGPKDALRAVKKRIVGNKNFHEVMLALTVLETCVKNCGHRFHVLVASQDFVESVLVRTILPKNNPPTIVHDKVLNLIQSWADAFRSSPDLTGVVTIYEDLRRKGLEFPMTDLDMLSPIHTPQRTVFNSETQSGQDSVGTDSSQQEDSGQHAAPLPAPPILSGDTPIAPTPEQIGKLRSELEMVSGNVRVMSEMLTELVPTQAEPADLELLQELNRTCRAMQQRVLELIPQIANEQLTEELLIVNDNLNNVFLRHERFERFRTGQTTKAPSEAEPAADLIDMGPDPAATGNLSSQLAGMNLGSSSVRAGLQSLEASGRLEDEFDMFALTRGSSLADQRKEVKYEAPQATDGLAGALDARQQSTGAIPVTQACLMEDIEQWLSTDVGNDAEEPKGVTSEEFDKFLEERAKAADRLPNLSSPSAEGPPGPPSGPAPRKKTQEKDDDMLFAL

Compound: Nc1nc2c(ncn2[C@@H]2O[C@H](COP(=O)(O)OP(=O)(O)OP(=O)(O)O)[C@@H](O)[C@H]2O)c(=O)[nH]1 [guanosine triphosphate]
Test: NP40-soluble protein abundance relative to vehicle (solubility fold change) (ratio); higher = more soluble protein in presence of GTP
Procedure: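 Solubility proteome profiling in Jurkat crude lysate. Lysate was treated with Mg-GTP (0.1-10 mM) for 10 min at room temperature and 3 min at 37 °C, then solubilised with 0.8% NP40 and benzonase, followed by ultracentrifugation. Proteins were quantified by TMT10 LC-MS/MS; the value is the NP40-soluble abundance relative to the NP40-processed vehicle, from 3 independent experiments.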

Target	NP40-soluble protein abundance (concentration: 0.1mM)	NP40-soluble protein abundance (concentration: 0.5mM)	NP40-soluble protein abundance (concentration: 1mM)	NP40-soluble protein abundance (concentration: 2mM)	NP40-soluble protein abundance (concentration: 4mM)	NP40-soluble protein abundance (concentration: 6mM)	NP40-soluble protein abundance (concentration: 8mM)	NP40-soluble protein abundance (concentration: 10mM)
UniProt O00291 and related entries	1.04 ± 0.045	1.01 ± 0.072	1.06 ± 0.068	1.06 ± 0.12	1.08 ± 0.093	1.09 ± 0.04	1.11 ± 0.11	1.13 ± 0.13
UniProt O43251-6|O43251-8	0.922 ± 0.12	0.965 ± 0.11	0.925 ± 0.079	0.971 ± 0.1	0.928 ± 0.077	0.961 ± 0.047	0.952 ± 0.04	0.958 ± 0.088
CASC3 (UniProt O15234)	0.983 ± 0.01	0.981 ± 0.029	1.05 ± 0.051	1 ± 0.076	0.971 ± 0.056	0.987 ± 0.064	1.02 ± 0.047	0.963 ± 0.071
AKAP8 (UniProt O43823)	0.978 ± 0.067	0.939 ± 0.05	1.02 ± 0.055	0.974 ± 0.1	1.01 ± 0.094	0.999 ± 0.065	1.06 ± 0.058	1.02 ± 0.11
UniProt O60784 and related entries	0.885 ± 0.072	0.836 ± 0.06	0.869 ± 0.069	0.835 ± 0.089	0.86 ± 0.077	0.847 ± 0.098	0.829 ± 0.09	0.86 ± 0.067
